{"sequences": {"note": "By UniProt entry, the sequences of proteins in these tests, tags left out. Where a name states a change or a piece, a line headed by the entry shows the natural chain unless it says otherwise.", "UniProt Q03431": "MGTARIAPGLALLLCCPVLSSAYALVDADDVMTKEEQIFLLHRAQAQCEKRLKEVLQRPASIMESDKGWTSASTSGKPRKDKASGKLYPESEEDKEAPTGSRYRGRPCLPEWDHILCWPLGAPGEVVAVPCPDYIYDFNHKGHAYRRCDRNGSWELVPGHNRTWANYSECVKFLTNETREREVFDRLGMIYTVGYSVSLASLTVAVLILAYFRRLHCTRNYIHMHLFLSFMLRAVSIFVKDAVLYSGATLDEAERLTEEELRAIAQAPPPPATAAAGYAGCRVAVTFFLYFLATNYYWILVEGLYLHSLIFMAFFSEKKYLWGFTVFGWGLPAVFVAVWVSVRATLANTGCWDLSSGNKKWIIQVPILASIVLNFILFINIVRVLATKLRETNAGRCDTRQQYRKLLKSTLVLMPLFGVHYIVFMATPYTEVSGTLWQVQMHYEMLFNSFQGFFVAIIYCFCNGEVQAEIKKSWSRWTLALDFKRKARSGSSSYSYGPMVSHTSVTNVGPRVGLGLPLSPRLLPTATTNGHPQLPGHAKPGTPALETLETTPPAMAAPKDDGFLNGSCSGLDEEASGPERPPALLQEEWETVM"}, "source": "PubChem BioAssay AID743266", "about": "(National Center for Advancing Translational Sciences (NCATS), 2014)", "note": "About 310 (0.076%) of roughly 410,000 compounds were called active. The shares of active, inactive and inconclusive entries below differ from those in the screen. The call rests on the fitted dose curve; in most records, active means well fitted activation curve with a large enough effect; inconclusive means small, poorly fitted or top-dose-only effect, or another doubt; inactive means no such curve, though single readings can be large or run the other way. Where the call is inconclusive, the potency comes from a doubtful curve fit. Potency means the concentration at half of the fitted maximal effect."}
{"molecular_target": "Parathyroid hormone/parathyroid hormone-related peptide receptor (Homo sapiens) (UniProt Q03431)", "assay": "qHTS for PTHR1 Agonists: Primary Screen; further: nearly all actives have a fitted effect of over 55% in size", "settings": "HEK293 GP2 PTHR1 cells, GloSensor cAMP luminescence, 1 h; activation: at 115 µM (top of the series) unless noted; series mostly up to 115 µM", "summary_of_the_method": "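HEK-293-derived GP2 cells expressing PTHR1 and a GloSensor cAMP reporter, 3,000/well, plated overnight, given luciferin plus IBMX (each 0.5 mM as added) for 1 h at 37 °C, then compound for 1 h at 37 °C. Luminescence was read after 15 min at room temperature.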"}
{"smiles": "Cc1ccc(S(=O)(=O)CC(=O)Nc2sc3c(c2C#N)CCCC3)cc1", "Potency": "inconclusive: 100 µM [activator, partial curve, poor fit]"}
{"smiles": "Cc1cccc(NC(=O)CNC(=O)CSc2nnc(C(F)(F)F)n2C)c1C", "Potency": "inconclusive: 39.8 µM [activator, partial curve, poor fit]"}
{"smiles": "Cn1c(N)c(C(=O)CSc2ncn[nH]2)c(=O)n(C)c1=O", "Potency": "inconclusive: 15.8 µM [activator, partial curve, poor fit]"}
{"smiles": "Cc1cccc(NC(=O)Cn2c(=O)n(CCCS(=O)(=O)C3CCCCC3)c(=O)c3ccccc32)c1", "Potency": "inactive"}
{"smiles": "COc1ccc(C2=C/C(=C\\c3cccc(OC(C)=O)c3)C(=O)O2)cc1", "activation": "inconclusive: 30.8% [activator]"}
{"smiles": "O=C(CNS(=O)(=O)c1ccccc1)Nc1ccc(C(F)(F)F)cc1", "Potency": "inconclusive: 31.6 µM [activator, single point]"}
{"smiles": "Cc1c(Cl)cccc1NC(=O)COC(=O)CN1C(=O)NC(C)(C)C1=O", "activation": "inconclusive: 50.7% [activator]"}
{"smiles": "CCOc1ccc(CCNC(=O)c2cnc3c(-c4ccc(F)cc4)c(C)nn3c2C)cc1OCC", "Potency": "inconclusive: 63.1 µM [activator, partial curve, poor fit]"}
{"smiles": "COc1cc(C(=O)OCCN2CCCCC2)ccc1O", "Potency": "inactive"}
{"smiles": "C#CCNc1cc(-c2ccccc2)nc2ncnn12", "Potency": "inconclusive: 50.1 µM [activator, partial curve, poor fit]"}
{"smiles": "CCN1CCN(c2c(Cl)cccc2NC(=O)c2ccc3nsnc3c2)CC1", "Potency": "inconclusive: 4.47 µM [activator, partial curve, poor fit]"}
{"smiles": "COc1ccc(-c2cc3ccc(O)cc3oc2=O)cc1", "Potency": "inactive"}
{"smiles": "O=C(c1ccccc1)N1CCN(CCc2ccncc2)CC1", "Potency": "inconclusive: 50.1 µM [activator, partial curve, poor fit]"}
{"smiles": "CSc1ncccc1C(=O)OCC(=O)c1[nH]c(C)c(C(C)=O)c1C", "activation": "inconclusive: -24.3% [activator]"}
{"smiles": "COc1ccc(CCN2CC(C(=O)NCc3cccc(F)c3)CCC2=O)cc1", "note": "(configuration not stated)", "Potency": "inactive"}
{"smiles": "CCOc1ccccc1C(=O)OCC(=O)Nc1ccc(OC(F)F)cc1", "Potency": "inconclusive: 39.8 µM [activator, single point]"}
{"smiles": "Cc1cc(=O)oc2cc(OCC(=O)OC(C)C(=O)NC3CCCC3)ccc12", "note": "(configuration not stated)", "Potency": "inconclusive: 112 µM [activator, partial curve, poor fit]"}
{"smiles": "CN(Cc1nc2ccccc2c(=O)[nH]1)C(=O)c1ccccc1OCc1ccc(Cl)cc1", "Potency": "inactive"}
{"smiles": "CCCCc1ccc(S(=O)(=O)Nc2cc(C)on2)cc1", "Potency": "inconclusive: 39.8 µM [activator, single point]"}
{"smiles": "CC(C)CN(C(=O)CSc1nnc2ccccn12)C1CCS(=O)(=O)C1", "note": "(configuration not stated)", "Potency": "inconclusive: 56.2 µM [activator, partial curve, poor fit]"}
{"smiles": "CC(=O)Nc1ccc(NC(=O)CSc2ccc3nnc(CCNS(=O)(=O)c4ccc(C)cc4)n3n2)cc1", "Potency": "inconclusive: 50.1 µM [activator, partial curve, poor fit]"}
{"smiles": "O=C(Nc1c(C(=O)N2CCOCC2)oc2ccccc12)c1ccccc1Cl", "Potency": "inconclusive: 44.7 µM [activator, partial curve]"}
{"smiles": "COCCN(C(=O)/C=C/c1cccc([N+](=O)[O-])c1)c1c(N)n(Cc2ccccc2)c(=O)[nH]c1=O", "activation": "inconclusive: 38.8% [activator]"}
{"smiles": "O=C(Cn1cc([N+](=O)[O-])ccc1=O)NC1CCCCC1", "Potency": "inconclusive: 56.2 µM [activator, single point]"}
{"smiles": "C/C(=N/NC(=O)c1ccco1)c1ccc(NC(=O)c2ccc(F)cc2)cc1", "Potency": "inactive"}
{"smiles": "COC(=O)c1cc2oc3ccccc3c2n1Cc1nc(-c2ccc(Cl)cc2)oc1C", "Potency": "inactive"}
{"smiles": "O=C(Nc1nc2ccccc2[nH]1)c1cc(F)cc(F)c1", "Potency": "inactive"}
{"smiles": "COC(=O)CSc1ncc(C#N)c(N)n1", "Potency": "inconclusive: 39.8 µM [activator, partial curve]"}
{"smiles": "COc1ccccc1CNC(=O)COC(=O)CSc1ccc(Cl)cc1", "Potency": "inconclusive: 39.8 µM [activator, single point]"}
{"smiles": "Cc1cccnc1C1=NOC(Cc2ccccc2)C(=O)N1C", "note": "(configuration not stated)", "Potency": "inactive"}
{"smiles": "COc1ccccc1-n1cnnc1SC1CCOC1=O", "note": "(configuration not stated)", "Potency": "inconclusive: 28.2 µM [activator, partial curve, poor fit]"}
{"smiles": "Cc1cccc(C2=NOC(=O)/C2=C\\c2ccccc2F)c1", "Potency": "inconclusive: 50.1 µM [activator, partial curve, poor fit]"}
{"smiles": "O=C(NCc1ccco1)c1ccc2c(=O)n(CCC3=CCCCC3)c(=O)[nH]c2c1", "Potency": "inactive"}
{"smiles": "Cc1ccc(-c2nc(C)sc2CC(=O)OCC(=O)Nc2cccc([N+](=O)[O-])c2)cc1", "Potency": "inconclusive: 112 µM [activator, single point]"}
{"smiles": "CCCCN(CC)CCNC(=O)c1cc2c(-c3ccccc3F)nn(C)c2s1", "Potency": "inactive"}
{"smiles": "CCOC(=O)c1ccc(NC(=O)C2=C(C)Nc3nc(SCc4ccc(Cl)cc4)nn3C2c2ccc(C)cc2)cc1", "note": "(configuration not stated)", "Potency": "inconclusive: 141 µM [activator, single point]"}
{"smiles": "CC(=O)NC1C(=O)N(CCN2CCOCC2)c2ccc(Br)cc21", "note": "(configuration not stated)", "Potency": "inactive"}
{"smiles": "CSCCC(NC(=O)CCC(=O)OCC(=O)[C@@]1(O)CCC2[C@@H]3CCC4=CC(=O)C=C[C@]4(C)C3[C@@H](O)C[C@@]21C)C(=O)O", "note": "(some centres not stated)", "Potency": "inconclusive: 89.1 µM [activator, partial curve, poor fit]"}
{"smiles": "COc1ccccc1CNC(=O)COC(=O)c1ccc2c(=O)n3c(nc2c1)CCCCC3", "Potency": "inconclusive: 6.31 µM [activator, partial curve]"}
{"smiles": "NC(CSS(=O)(=O)O)=NCCC12CC3CC(CC(O)(C3)C1)C2", "Potency": "inactive"}
{"smiles": "CCOC(=O)c1ccc(NC(=O)CSc2nc(=O)n(CCN3CCOCC3)c3c2CCC3)cc1", "activation": "inconclusive: -71.2% [activator]"}
{"smiles": "CCn1cc(C(=O)N2CCN(c3ccc(F)cc3)CC2)c(=O)c2cc(S(=O)(=O)N3CCOCC3)ccc21", "Potency": "inconclusive: 50.1 µM [activator, partial curve, poor fit]"}
